PubChem BioAssay AID504804 | Drosophila RNAi Screening Center, 2011
In all, the deposit lists about 19,000 reagents; this is an unselected part of those that have a named target and a result. In the full data, 47 (0.25%) got an active call. 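Signals are raw, not normalised; exact z-scores behind calls not deposited; actives needed confirmation, so some wells reaching 2 SD are inactive.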 A number with no mark means an inactive call. The numbers tell different reagents against one gene apart. A plus sign joins genes that one reagent is predicted to hit.

- Purpose: 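Fly genes whose loss lessens doxorubicin-driven cell death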 (primary screen)
- Cell system: Drosophila Kc cells
- Reagent: long dsRNA against Drosophila genes, 0.5 µg dsRNA per well
- Timing: 96 h (48 h knock-down, then 48 h drug)
- Conditions: doxorubicin 5 µg/ml for 48 h, added 48 h after dsRNA
- Measurement: 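Luminescent ATP counts per replicate, not normalised, reflecting viable cells after 48 h dsRNA knock-down followed by 48 h of 5 µg/ml doxorubicin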
- Direction: raw ATP luminescence: higher = more viable cells, protection from doxorubicin
- Hit rule: 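z-score of 2 or more over plate mean in both duplicates, retained only when retests and separate dsRNAs confirm the protection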

predicted target	dsRNA no.	raw ATP luminescence, replicate 1	raw ATP luminescence, replicate 2
CG34199	1	1.78e5	1.40e5
CG11629	1	61437	61303
hzg (herzog)	1	79550	61307
Hpr1	1	52383	31573
CG18577	1	50880	47940
CG32182	1	80177	77010
CG5255	1	77070	80400
eIF3m (eukaryotic translation initiation factor 3 subunit m)	1	57177	50937
loj (logjam)	1	47913	52637
CG45263	1	90923	64500
CG45263	2	54113	59303
CG45263	3	52750	73633
CG45263	4	52390	45627
Hexim (Hexamethylene bisacetamide inducible)	1	92473	36507
Tie (Tie-like receptor tyrosine kinase)	1	1.27e5	36410
Tie (Tie-like receptor tyrosine kinase)	2	80833	81500
CG14545	1	68400	88460
pico	1	3.67e5	3.22e5
PolZ1 (DNA polymerase zeta subunit 1)	1	57887	54190
Mdr65 (Multi drug resistance 65)	1	93697	89180
Atg10 + CG18853 + CG12822	1	1.91e5	1.62e5
eEF1delta (eukaryotic translation elongation factor 1 delta)	1	72903	64643
Cdc14 (Cell division cycle 14)	1	46670	61393
CG34297	1	30070	48757
Lcp1Psi (Larval cuticle protein 1 pseudogene)	1	89720	90583
Noc2 (Nucleolar complex protein 2)	1	72677	64193
SNRPG (Small nuclear ribonucleoprotein G)	1	3.52e5	3.43e5
Nepl17 (Neprilysin-like 17)	1	62890	54430
Nup54 (Nucleoporin 54kD)	1	69760	62433
CG12496	1	36760	44210
CIAPIN1 (Cytokine induced apoptosis inhibitor 1)	1	85380	53897
ccb (central complex broad)	1	3.50e5	2.71e5
ScsbetaG (Succinyl-coenzyme A synthetase beta subunit, GDP-forming)	1	74680	81283
CG31883	1	79390	55967
Agpat2 (1-Acylglycerol-3-phosphate O-acyltransferase 2)	1	1.07e5	79450
E(spl)m3-HLH (Enhancer of split m3, helix-loop-helix)	1	18440	22180
ced-6	1	42280	73383
CG15506	1	56740	47680
Ugt37A3 (UDP-glycosyltransferase family 37 member A3)	1	49063	46247
CG9135	1	1.20e5	66480
Ccdc39 (Coiled-coil domain containing protein 39)	1	68847	57227
Adat1 (Adenosine deaminase, tRNA-specific 1)	1	73367	72423
Or85d (Odorant receptor 85d)	1	66200	68280
Pex10 (Peroxin 10)	1	54583	59857
CG15029 (retired record)	1	2.92e5	3.25e5
grass (Gram-positive Specific Serine protease)	1	71290	37520
RpL13A (Ribosomal protein L13A)	1	43887	22367
shep (alan shepard)	1	40360	1.72e5
shep (alan shepard)	2	65620	69530
shep (alan shepard)	3	34917	33643
tra (transformer)	1	84753	60870
Nepl19 (Neprilysin-like 19)	1	1.89e5	2.35e5
Rbp9 (RNA-binding protein 9)	1	33020	29377
Rbp9 (RNA-binding protein 9)	2	1.02e5	65583
CG30470 (retired record)	1	28940	29257
CG11168	1	36533	36023
CG9483	1	33017	33973

9 entries from above, showing only “raw ATP luminescence, replicate 2”.
ccb (central complex broad) = 2.71e5
ScsbetaG (Succinyl-coenzyme A synthetase beta subunit, GDP-forming) = 81283
CG31883 = 55967
Agpat2 (1-Acylglycerol-3-phosphate O-acyltransferase 2) = 79450
E(spl)m3-HLH (Enhancer of split m3, helix-loop-helix) = 22180
ced-6 = 73383
CG15506 = 47680
Ugt37A3 (UDP-glycosyltransferase family 37 member A3) = 46247
CG9135 = 66480
